What all share (test): EMSA
In general terms: In EMSA bound probe runs differently from free probe, usually more slowly.

Amino acid sequences for entries named in this document (tags omitted). Residues count along the entry.
UniProt Q9FG77, 270-332 K284A: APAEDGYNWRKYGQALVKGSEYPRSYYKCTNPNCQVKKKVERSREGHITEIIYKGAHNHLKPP
UniProt Q9FG77, 270-332 K284Q: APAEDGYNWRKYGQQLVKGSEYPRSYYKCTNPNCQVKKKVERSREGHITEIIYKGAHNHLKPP
UniProt Q9FG77, 270-332 K284R: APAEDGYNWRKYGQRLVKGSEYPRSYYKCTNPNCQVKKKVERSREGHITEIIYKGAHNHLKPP

In series [1] the target is AtWRKY2-N K284A (Arabidopsis) (UniProt Q9FG77). The conditions noted are these: EMSA: 25 mM HEPES pH 7.0, 100 mM NaCl, 5% glycerol, 6 pmol DNA in 6 ul, 4 C 20 min; recombinant protein; residues 270-332; protein details: C-terminal His; label: 5' Cy3 on strand 1.
In series [2] the target is AtWRKY2-N K284Q (Arabidopsis) (UniProt Q9FG77). The conditions noted are these: EMSA: 25 mM HEPES pH 7.0, 100 mM NaCl, 5% glycerol, 6 pmol DNA in 6 ul, 4 C 20 min; recombinant protein; residues 270-332; protein details: C-terminal His; label: 5' Cy3 on strand 1.
Series [3] has as its target AtWRKY2-N K284R (Arabidopsis) (UniProt Q9FG77). The conditions noted are these: slight band; EMSA: 25 mM HEPES pH 7.0, 100 mM NaCl, 5% glycerol, 6 pmol DNA in 6 ul, 4 C 20 min; recombinant protein; residues 270-332; protein details: C-terminal His; label: 5' Cy3 on strand 1.

Results on one sequence are retold here after publication PMC7026264.

For part of these data: No signal at the amounts used counts as a negative. For part of these data: At least one verdict was read from the data and is not stated in words by the source. For part of these data: Weaker means in comparison with the reference protein, sequence or condition of that experiment.

With “CGCCTTTGACCAGCGC (double strand) [W-box DNA for EMSA]”, the binding result in series [1] is on record as “no binding”; in series [2], “no binding”; in series [3] it was “binds more weakly”.
